These are yes or no findings as the source states them, for the method shown. Binding seen in cells or lysates may run through a third protein. Some results given as binding are weak or reduced against the parent protein; the word gives no strength.
Biological target: FOXO1 (human) (UniProt Q12778)
Assay: co-IP; anti-FOXO1 or control IgG precipitated from pre-cleared total cell lysates in co-immunoprecipitation buffer at 4°C, Protein A/G beads, 5 washes; western blot with anti-ZEB2

The chains behind the UniProt entries cited, without tags or fusion partners.
UniProt Q12778: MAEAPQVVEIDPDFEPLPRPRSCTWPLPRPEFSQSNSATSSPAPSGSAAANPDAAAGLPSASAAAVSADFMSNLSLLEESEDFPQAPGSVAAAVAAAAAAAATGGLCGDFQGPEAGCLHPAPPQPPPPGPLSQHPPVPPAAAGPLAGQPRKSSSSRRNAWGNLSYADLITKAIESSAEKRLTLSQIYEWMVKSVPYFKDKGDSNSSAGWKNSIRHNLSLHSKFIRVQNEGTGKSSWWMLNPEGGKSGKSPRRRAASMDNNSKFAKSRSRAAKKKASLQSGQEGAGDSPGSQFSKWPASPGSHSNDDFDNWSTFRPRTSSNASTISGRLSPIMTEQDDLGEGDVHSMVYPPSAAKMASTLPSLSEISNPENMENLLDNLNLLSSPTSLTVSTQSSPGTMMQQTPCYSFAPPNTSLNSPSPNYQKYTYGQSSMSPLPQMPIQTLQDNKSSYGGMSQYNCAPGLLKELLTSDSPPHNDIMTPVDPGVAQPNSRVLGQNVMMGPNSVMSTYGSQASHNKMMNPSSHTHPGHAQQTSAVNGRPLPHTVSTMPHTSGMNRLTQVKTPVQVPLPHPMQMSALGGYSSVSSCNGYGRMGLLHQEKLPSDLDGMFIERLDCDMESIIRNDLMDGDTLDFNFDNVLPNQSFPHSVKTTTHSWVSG

binding: binds
B1: ZEB2 (protein, UniProt O60315 1-1214)
chain: MKQPIMADGPRCKRRKQANPRRKNVVNYDNVVDTGSETDEEDKLHIAEDDGIANPLDQETSPASVPNHESSPHVSQALLPREEEEDEIREGGVEHPWHNNEILQASVDGPEEMKEDYDTMGPEATIQTAINNGTVKNANCTSDFEEYFAKRKLEERDGHAVSIEEYLQRSDTAIIYPEAPEELSRLGTPEANGQEENDLPPGTPDAFAQLLTCPYCDRGYKRLTSLKEHIKYRHEKNEENFSCPLCSYTFAYRTQLERHMVTHKPGTDQHQMLTQGAGNRKFKCTECGKAFKYKHHLKEHLRIHSGEKPYECPNCKKRFSHSGSYSSHISSKKCIGLISVNGRMRNNIKTGSSPNSVSSSPTNSAITQLRNKLENGKPLSMSEQTGLLKIKTEPLDFNDYKVLMATHGFSGTSPFMNGGLGATSPLGVHPSAQSPMQHLGVGMEAPLLGFPTMNSNLSEVQKVLQIVDNTVSRQKMDCKAEEISKLKGYHMKDPCSQPEEQGVTSPNIPPVGLPVVSHNGATKSIIDYTLEKVNEAKACLQSLTTDSRRQISNIKKEKLRTLIDLVTDDKMIENHNISTPFSCQFCKESFPGPIPLHQHERYLCKMNEEIKAVLQPHENIVPNKAGVFVDNKALLLSSVLSEKGMTSPINPYKDHMSVLKAYYAMNMEPNSDELLKISIAVGLPQEFVKEWFEQRKVYQYSNSRSPSLERSSKPLAPNSNPPTKDSLLPRSPVKPMDSITSPSIAELHNSVTNCDPPLRLTKPSHFTNIKPVEKLDHSRSNTPSPLNLSSTSSKNSHSSSYTPNSFSSEELQAEPLDLSLPKQMKEPKSIIATKNKTKASSISLDHNSVSSSSENSDEPLNLTFIKKEFSNSNNLDNKSTNPVFSMNPFSAKPLYTALPPQSAFPPATFMPPVQTSIPGLRPYPGLDQMSFLPHMAYTYPTGAATFADMQQRRKYQRKQGFQGELLDGAQDYMSGLDDMTDSDSCLSRKKIKKTESGMYACDLCDKTFQKSSSLLRHKYEHTGKRPHQCQICKKAFKHKHHLIEHSRLHSGEKPYQCDKCGKRFSHSGSYSQHMNHRYSYCKREAEEREAAEREAREKGHLEPTELLMNRAYLQSITPQGYSDSEERESMPRDGESEKEHEKEGEDGYGKLGRQDGDEEFEEEEEESENKSMDTDPETIRDEEETGDHSMDDSSEDGKMETKSDHEEDNMEDGM
